The values that follow come from publication PMC8745161.

No constants are given. Whether binding was seen depends on the method and setting. In cells and extracts the contact can be indirect. Some binding calls cover weakened binding; strength is not graded here. Where a sequence is shown, tags or fusion partners need not be part of it.

This experiment addresses T1, GFP-Lac1 (fission yeast ceramide synthase subunit Lac1) (Schizosaccharomyces pombe) (UniProt O59735).
T1 sequence: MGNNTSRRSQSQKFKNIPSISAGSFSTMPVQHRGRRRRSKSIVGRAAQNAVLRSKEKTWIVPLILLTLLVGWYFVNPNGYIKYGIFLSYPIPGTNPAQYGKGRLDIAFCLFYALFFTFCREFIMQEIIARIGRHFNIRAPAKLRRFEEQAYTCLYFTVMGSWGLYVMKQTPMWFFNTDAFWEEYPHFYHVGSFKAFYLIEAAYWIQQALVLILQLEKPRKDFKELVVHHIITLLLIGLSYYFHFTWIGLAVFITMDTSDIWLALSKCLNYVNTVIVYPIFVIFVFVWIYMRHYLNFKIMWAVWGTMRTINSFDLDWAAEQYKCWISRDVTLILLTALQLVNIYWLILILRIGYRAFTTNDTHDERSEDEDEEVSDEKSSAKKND
The experiment in a line: co-IP; native co-immunoprecipitation on ER-enriched fractions solubilised with 1% digitonin in TNE buffer (50 mM Tris-HCl pH 7.5, 500 mM NaCl, 5 mM EDTA); GFP-Lac1 precipitated with GFP-Trap_A, 4 °C, 3 h; washes with TNE and 0.2% digitonin; Lag1-3xHA detected by anti-HA blot; single-tagged strains as controls.

B1: Lag1-3xHA (fission yeast ceramide synthase subunit Lag1) (protein, UniProt P78970 1-390)
chain: MSNRKADEKHHMSSSSLTNDRSYIRNLSNRKTSISRKVPITRTLEDPSNFVAKDGTKLVQAPLFLLVWQKEICLSIIAICFACLLSPSLRPYAEPFIFLSYKQPDGSYGKGPKDACFPIFWVIVFTAFRVIVMDYVFRPFVLNWGVRNRKVIIRFCEQGYSFFYYLCFWFLGLYIYRSSNYWSNEEKLFEDYPQYYMSPLFKAYYLIQLGFWLQQILVLHLEQRRADHWQMFAHHIVTCALIILSYGFNFLRVGNAILYIFDLSDYILSGGKMLKYLGFGKICDYLFGIFVASWVYSRHYLFSKILRVVVTNAPEIIGGFHLDVPNGYIFNKPIYIAFIILLFTLQLLIYIWFGMIVKVAYRVFSGEEATDSRSDDEGEDEEASSTNEDK
B1: the binding entry is “binds”.
